Record: PubChem BioAssay AID1259308 (NCATS, 2017)
Here is a random part of about 59,000 reagents tested. About 1,510 of all reagents (2.6%) were called active. 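Calls use total luciferase alone and ignore viability, so some active siRNAs may act by altering cell number.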 Reagents against one gene are numbered here. Further read-outs or replicates are left out here.

Test: 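Genes whose loss raises luciferase production in HEK293 cells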 (primary screen)
System: human HEK293 embryonic kidney cells stably expressing firefly luciferase (HEK-CMV-Luc2-Hygro)
Reagents: single siRNA against human genes, 0.8 pmol siRNA per well
Time to read-out: 72 h
Read-out: 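Reporter luminescence and viable-cell signal on separate replicate plates, given as percent of non-targeting control and median/MAD z-scores, plus per-cell luciferase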
Reading the numbers: total luciferase, z-score and total luciferase, % of control: higher = more reporter protein produced; luciferase per cell, z-score: higher = more reporter output per viable cell
Rule for the call: 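Active when the median/MAD z-score for overall luciferase is greater than 3; a gene was taken forward for validation with new siRNAs if at least two of its three siRNAs passed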
Calls: active = raised luciferase; inactive = no rise

| gene | reagent no. | total luciferase, z-score | total luciferase, % of control | luciferase per cell, z-score | Outcome |
| --- | --- | --- | --- | --- | --- |
| VAV2 | 1 | 0.721 | 96.2 | 1.06 | inactive |
| VAV2 | 2 | 4.27 | 167 | 2.85 | active |
| VAV2 | 3 | 2.95 | 141 | 2.49 | inactive |
| CD207 | 1 | 0.517 | 92.2 | 1.02 | inactive |
| CD207 | 2 | 0.0659 | 83.2 | 0.0948 | inactive |
| CD207 | 3 | -1.25 | 57 | -1.32 | inactive |
| PAPSS1 | 1 | -0.552 | 70.9 | 0.339 | inactive |
| PAPSS1 | 2 | 2.27 | 127 | 1.24 | inactive |
| PAPSS1 | 3 | 0.119 | 84.3 | 1.19 | inactive |
| DAPL1 | 1 | 0.996 | 102 | 0.298 | inactive |
| DAPL1 | 2 | 0.17 | 85.3 | 0.752 | inactive |
| DAPL1 | 3 | 3.58 | 153 | 3.21 | active |
| RHO | 1 | -1.1 | 60.1 | 0.328 | inactive |
| RHO | 2 | -0.493 | 72.1 | -0.137 | inactive |
| RHO | 3 | -0.437 | 73.2 | -0.758 | inactive |
| TICAM2 | 1 | 1.92 | 120 | 1.33 | inactive |
| TICAM2 | 2 | 0.977 | 101 | 1.34 | inactive |
| TICAM2 | 3 | 1.33 | 108 | 1.84 | inactive |
| GSTM3 | 1 | -0.55 | 71 | -0.502 | inactive |
| GSTM3 | 2 | -0.229 | 77.3 | 0.299 | inactive |
| GSTM3 | 3 | -0.837 | 65.2 | -1.01 | inactive |
| RGN | 1 | 0.389 | 89.6 | 0.843 | inactive |
| RGN | 2 | -1.83 | 45.4 | -1.59 | inactive |
| RGN | 3 | -1.98 | 42.4 | -1.09 | inactive |
| OR52L1 | 1 | 0.29 | 87.7 | 0.333 | inactive |
| OR52L1 | 2 | -0.389 | 74.2 | 0.256 | inactive |
| OR52L1 | 3 | 2.59 | 133 | 1.94 | inactive |
| FTO | 1 | 0.887 | 99.5 | 0.991 | inactive |
| FTO | 2 | -0.924 | 63.5 | -0.171 | inactive |
| FTO | 3 | -0.38 | 74.3 | 0.6 | inactive |
| MMP9 | 1 | 0.0525 | 82.9 | 0.189 | inactive |
| MMP9 | 2 | 0.647 | 94.8 | 0.707 | inactive |
| MMP9 | 3 | -0.555 | 70.8 | -0.635 | inactive |
| WARS2 | 1 | -1.19 | 58.2 | -1.5 | inactive |
| WARS2 | 2 | 0.164 | 85.1 | 0.242 | inactive |
| WARS2 | 3 | -0.158 | 78.7 | -0.55 | inactive |
| NDE1 | 1 | 1.45 | 111 | 1.1 | inactive |
| NDE1 | 2 | 1.51 | 112 | 1.32 | inactive |
| NDE1 | 3 | 0.0959 | 83.8 | 0.082 | inactive |
| ZNF426 | 1 | -0.594 | 70.1 | -0.671 | inactive |
| ZNF426 | 2 | 0.892 | 99.6 | 0.781 | inactive |
| ZNF426 | 3 | 0.112 | 84.1 | -0.311 | inactive |
| MYBL2 | 1 | -0.0892 | 80.1 | 0.479 | inactive |
| MYBL2 | 2 | -1.18 | 58.4 | -0.41 | inactive |
| MYBL2 | 3 | -1.07 | 60.6 | -0.75 | inactive |
| UBALD2 | 1 | 0.921 | 100 | 0.849 | inactive |
| UBALD2 | 2 | -1.39 | 54.3 | -1.33 | inactive |
| UBALD2 | 3 | -0.0388 | 81.1 | 0.482 | inactive |
| GRPR | 1 | 0.507 | 92 | -0.0319 | inactive |
| GRPR | 2 | -0.269 | 76.5 | -0.303 | inactive |
| GRPR | 3 | -1.62 | 49.7 | -1.76 | inactive |
| PANK1 | 1 | -0.687 | 68.2 | -1.11 | inactive |
| PANK1 | 2 | -0.634 | 69.3 | 0.0649 | inactive |
| PANK1 | 3 | -1.99 | 42.3 | -1.07 | inactive |
| ATAT1 | 1 | 0.608 | 94 | 0.728 | inactive |
| ATAT1 | 2 | -0.308 | 75.8 | -0.341 | inactive |
| ATAT1 | 3 | -1.71 | 47.8 | -1.01 | inactive |
| CD36 | 1 | -0.295 | 76 | -0.865 | inactive |
| CD36 | 2 | -0.866 | 64.7 | -0.645 | inactive |
| CD36 | 3 | -2.1 | 40.1 | -1.88 | inactive |
| AQP7 | 1 | 0.483 | 91.5 | -0.12 | inactive |
| AQP7 | 2 | -0.706 | 67.8 | -0.814 | inactive |
| AQP7 | 3 | 1.8 | 118 | 0.906 | inactive |
| PCDHB14 | 1 | -1.33 | 55.5 | -1.34 | inactive |
| PCDHB14 | 2 | -0.166 | 78.6 | 1.23 | inactive |
| PCDHB14 | 3 | -0.231 | 77.3 | -0.659 | inactive |
| HAUS2 | 1 | -0.675 | 68.5 | -0.752 | inactive |
| HAUS2 | 2 | -0.392 | 74.1 | -0.245 | inactive |
| HAUS2 | 3 | 0.365 | 89.2 | 0.673 | inactive |
| FAM24A | 1 | 3.68 | 155 | 2.77 | active |
| FAM24A | 2 | 1.55 | 113 | 1.43 | inactive |
| FAM24A | 3 | -0.123 | 79.4 | 0.0704 | inactive |
| FMC1 | 1 | 1.52 | 112 | 1.71 | inactive |
| FMC1 | 2 | 2.74 | 136 | 2.82 | inactive |
| FMC1 | 3 | -0.561 | 70.7 | -0.269 | inactive |

Part of the list above, showing only “total luciferase, % of control”.
ZNF426 #2	99.6
ZNF426 #3	84.1
MYBL2 #1	80.1
MYBL2 #2	58.4
MYBL2 #3	60.6
UBALD2 #1	100
UBALD2 #2	54.3
UBALD2 #3	81.1
GRPR #1	92
GRPR #2	76.5
